Data reported in US20040142357A1.
No constants are given. Whether binding was seen depends on the method and setting. For some of these results: In cells and extracts the contact can be indirect. Some results given as binding are weak or reduced against the parent protein; the word gives no strength. For some of these results: Tags and fused reporters may be left off the sequences shown.

Amino acid sequences for entries named in this document (tags omitted). A change or cut given only in a name is not applied to a line headed by its entry.
UniProt P54274: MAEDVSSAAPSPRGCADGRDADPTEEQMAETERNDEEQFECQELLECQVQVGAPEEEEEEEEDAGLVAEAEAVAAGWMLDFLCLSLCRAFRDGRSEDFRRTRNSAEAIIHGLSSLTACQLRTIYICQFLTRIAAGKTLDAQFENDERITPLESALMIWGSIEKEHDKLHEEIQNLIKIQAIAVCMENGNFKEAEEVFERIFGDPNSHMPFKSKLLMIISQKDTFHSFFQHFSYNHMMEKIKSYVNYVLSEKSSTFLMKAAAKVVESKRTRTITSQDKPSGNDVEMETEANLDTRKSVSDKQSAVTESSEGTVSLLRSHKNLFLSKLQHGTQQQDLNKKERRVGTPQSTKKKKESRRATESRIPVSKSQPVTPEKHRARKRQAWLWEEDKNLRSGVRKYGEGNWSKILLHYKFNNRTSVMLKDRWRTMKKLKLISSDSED
UniProt P15531: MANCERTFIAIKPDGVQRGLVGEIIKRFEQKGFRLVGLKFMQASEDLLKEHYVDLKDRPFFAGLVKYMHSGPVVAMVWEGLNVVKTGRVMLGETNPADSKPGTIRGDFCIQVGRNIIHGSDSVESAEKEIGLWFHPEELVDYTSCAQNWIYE

How the values were obtained:
[1] = biological target: T1, HA-PinX1 (PinX1 with an N-terminal HA epitope tag) (human) (UniProt Q96BK5); experiment: GST pulldown from cell extracts, immunoblot with 12CA5
T1 sequence: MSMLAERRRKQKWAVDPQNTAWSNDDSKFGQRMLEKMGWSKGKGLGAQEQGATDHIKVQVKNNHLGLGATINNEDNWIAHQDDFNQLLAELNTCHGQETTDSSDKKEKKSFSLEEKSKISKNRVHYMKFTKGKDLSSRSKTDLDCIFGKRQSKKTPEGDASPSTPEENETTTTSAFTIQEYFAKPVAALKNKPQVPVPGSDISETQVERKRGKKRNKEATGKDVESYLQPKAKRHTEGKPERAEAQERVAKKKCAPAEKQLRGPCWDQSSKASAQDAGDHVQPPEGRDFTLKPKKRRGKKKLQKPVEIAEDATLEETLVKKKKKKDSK

[2] = biological target: T1, HA-PinX1 (PinX1 with an N-terminal HA epitope tag) (human); experiment: GST pulldown from HeLa lysates, immunoblot with anti-HA
[3] = biological target: T2, GFP fusion of the PinX1 254-328 amino acid fragment (human) (UniProt Q96BK5); experiment: GST pulldown from HeLa lysates, immunoblot with anti-GFP
T2 sequence: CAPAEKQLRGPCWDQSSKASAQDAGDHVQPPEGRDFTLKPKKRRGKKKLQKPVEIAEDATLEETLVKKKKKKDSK

[4] = biological target: T3, GFP fusion of the PinX1 C-terminal 142-328 amino acid fragment (human) (UniProt Q96BK5); experiment: as above
T3 sequence: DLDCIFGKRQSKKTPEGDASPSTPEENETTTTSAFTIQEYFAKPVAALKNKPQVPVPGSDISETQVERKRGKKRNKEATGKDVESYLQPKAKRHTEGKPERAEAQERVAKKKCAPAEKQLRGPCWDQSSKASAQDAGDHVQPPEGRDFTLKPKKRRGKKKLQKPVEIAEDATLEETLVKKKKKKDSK

[5] = biological target: T4, GFP-PinX1 (full length PinX1 as a GFP fusion protein) (human) (UniProt Q96BK5); experiment: as above
T4 sequence: T1 sequence

[6] = biological target: Pin2 isoform of Pin2/TRF1 fused to the GAL4 DNA-binding domain (pAS2 vector, yeast two-hybrid bait) (human); experiment: yeast two-hybrid screen, Pin2 bait against a HeLa cDNA library, His and LacZ screening

| binding [1] | binding [2] | binding [3] | binding [4] | binding [5] | binding [6] | Substance |
| --- | --- | --- | --- | --- | --- | --- |
| binds | binds | binds | binds | binds |  | GST-Pin2 (from UniProt P54274 2-439) |
|  |  |  |  |  | binds | Pin2 isoform clone from the HeLa cDNA library fused to the GAL4 activation domain (pGAD-GH, yeast two-hybrid prey) (from UniProt P54274 2-439) |
|  |  |  |  |  | binds | nm23-H1 clone from the HeLa cDNA library fused to the GAL4 activation domain (yeast two-hybrid prey) (from UniProt P15531 1-152) |
